# PubChem BioAssay AID1259308 – NCATS, 2017
# Purpose: 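Genes whose loss raises luciferase production in HEK293 cells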 (primary screen)
# System: human HEK293 embryonic kidney cells stably expressing firefly luciferase (HEK-CMV-Luc2-Hygro)
# Reagent: single siRNA against human genes, 0.8 pmol siRNA per well
# Time to read-out: 72 h
# Measurement: 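Luciferase light (ONE-Glo) measured on one replicate plate set and viability (CellTiter-Glo) on the other, scaled to a negative control siRNA, with robust z-scores and luciferase per cell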
# Scale: total luciferase, z-score and total luciferase, % of control: higher = more reporter protein produced; luciferase per cell, z-score: higher = more reporter output per viable cell; viable cells, % of control: higher = more viable cells
# Hit rule: 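An siRNA counts as active if its total luciferase robust z-score exceeds 3; genes with two or more such siRNAs out of three were retested with fresh siRNAs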
# Calls: active = raised luciferase; inactive = no rise
# The whole screen tested about 59,000 reagents; this is an unselected part. About 1,510 of them (2.6%) were called active. 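Calls use total luciferase alone and ignore viability, so some active siRNAs may act by altering cell number.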 Reagents against one gene are numbered here.
Target gene,siRNA no.,"total luciferase, z-score","total luciferase, % of control","luciferase per cell, z-score","viable cells, % of control",activity call
THSD1 (thrombospondin type 1 domain containing 1),1,0.678,95.4,0.329,97.7,inactive
THSD1 (thrombospondin type 1 domain containing 1),2,0.975,101,0.114,110,inactive
THSD1 (thrombospondin type 1 domain containing 1),3,0.914,100,0.442,99.5,inactive
CEBPG (CCAAT enhancer binding protein gamma),1,-2.07,40.8,-2.19,81.1,inactive
CEBPG (CCAAT enhancer binding protein gamma),2,-0.297,76,0.0189,84.5,inactive
CEBPG (CCAAT enhancer binding protein gamma),3,-2.28,36.5,-2.61,81.1,inactive
PRSS58 (serine protease 58),1,-0.324,75.4,-0.746,103,inactive
PRSS58 (serine protease 58),2,0.0528,82.9,-0.324,101,inactive
PRSS58 (serine protease 58),3,-1.02,61.5,-0.734,83.4,inactive
RTL5 (retrotransposon Gag like 5),1,-0.724,67.5,0.117,73.1,inactive
RTL5 (retrotransposon Gag like 5),2,0.0753,83.4,-0.0145,93.5,inactive
RTL5 (retrotransposon Gag like 5),3,0.861,99,1.3,78.7,inactive
ARHGAP32 (Rho GTPase activating protein 32),1,1.35,109,0.721,101,inactive
ARHGAP32 (Rho GTPase activating protein 32),2,0.0718,83.3,0.0147,92.7,inactive
ARHGAP32 (Rho GTPase activating protein 32),3,0.337,88.6,0.632,83.8,inactive
TAF9B (TATA-box binding protein associated factor 9b),1,-0.102,79.9,-0.367,98.3,inactive
TAF9B (TATA-box binding protein associated factor 9b),2,-0.578,70.4,-1.36,113,inactive
TAF9B (TATA-box binding protein associated factor 9b),3,0.644,94.7,0.801,85.7,inactive
ALAS2 (5'-aminolevulinate synthase 2),1,0.257,87,0.0284,96.5,inactive
ALAS2 (5'-aminolevulinate synthase 2),2,1.51,112,1.59,82.2,inactive
ALAS2 (5'-aminolevulinate synthase 2),3,0.318,88.2,0.269,91.8,inactive
CDC42EP5 (CDC42 effector protein 5),1,2.3,128,2.21,79.8,inactive
CDC42EP5 (CDC42 effector protein 5),2,-0.214,77.6,-0.547,100,inactive
CDC42EP5 (CDC42 effector protein 5),3,1.81,118,1.67,84.9,inactive
CTSV (cathepsin V),1,2.03,122,1.57,90.4,inactive
CTSV (cathepsin V),2,-0.703,67.9,-0.355,83.3,inactive
CTSV (cathepsin V),3,0.183,85.5,0.696,79.6,inactive
RLIG1 (RNA 5'-phosphate and 3'-OH ligase 1),1,0.772,97.2,0.975,84,inactive
RLIG1 (RNA 5'-phosphate and 3'-OH ligase 1),2,1.15,105,1.13,86.9,inactive
RLIG1 (RNA 5'-phosphate and 3'-OH ligase 1),3,-0.949,63,-0.77,86.2,inactive

Copied from the entries so far (8 entries):
Target gene,siRNA no.,"total luciferase, z-score","total luciferase, % of control","luciferase per cell, z-score","viable cells, % of control",activity call
THSD1 (thrombospondin type 1 domain containing 1),2,0.975,101,0.114,110,inactive
THSD1 (thrombospondin type 1 domain containing 1),3,0.914,100,0.442,99.5,inactive
CEBPG (CCAAT enhancer binding protein gamma),1,-2.07,40.8,-2.19,81.1,inactive
CEBPG (CCAAT enhancer binding protein gamma),2,-0.297,76,0.0189,84.5,inactive
CEBPG (CCAAT enhancer binding protein gamma),3,-2.28,36.5,-2.61,81.1,inactive
PRSS58 (serine protease 58),1,-0.324,75.4,-0.746,103,inactive
PRSS58 (serine protease 58),2,0.0528,82.9,-0.324,101,inactive
PRSS58 (serine protease 58),3,-1.02,61.5,-0.734,83.4,inactive

Additional reagents follow.
Target gene,siRNA no.,"total luciferase, z-score","total luciferase, % of control","luciferase per cell, z-score","viable cells, % of control",activity call
TRMT9B (tRNA methyltransferase 9B (putative)),1,0.497,91.8,0.0313,102,inactive
TRMT9B (tRNA methyltransferase 9B (putative)),2,-0.457,72.8,-0.235,86.5,inactive
TRMT9B (tRNA methyltransferase 9B (putative)),3,1.5,112,2.06,72.6,inactive
MAPK8IP1 (mitogen-activated protein kinase 8 interacting protein 1),1,-1.21,57.8,-0.234,68.7,inactive
MAPK8IP1 (mitogen-activated protein kinase 8 interacting protein 1),2,-0.735,67.3,-0.408,83.7,inactive
MAPK8IP1 (mitogen-activated protein kinase 8 interacting protein 1),3,0.693,95.7,0.818,86.2,inactive
"MAGEA5P (MAGE family member A5, pseudogene)",1,0.196,85.8,-0.127,99.1,inactive
"MAGEA5P (MAGE family member A5, pseudogene)",2,0.514,92.1,2.19,57.8,inactive
"MAGEA5P (MAGE family member A5, pseudogene)",3,-0.0273,81.3,-0.72,110,inactive
UBE2A (ubiquitin conjugating enzyme E2 A),1,-0.521,71.5,-0.49,90.9,inactive
UBE2A (ubiquitin conjugating enzyme E2 A),2,-1.75,47.1,-2.5,102,inactive
UBE2A (ubiquitin conjugating enzyme E2 A),3,0.181,85.5,-0.155,99.5,inactive
NKX1-1 (NK1 homeobox 1),1,-0.334,75.2,0.0346,83.3,inactive
NKX1-1 (NK1 homeobox 1),2,1.98,121,1.92,81.8,inactive
NKX1-1 (NK1 homeobox 1),3,0.795,97.7,1.26,78.4,inactive
MAVS (mitochondrial antiviral signaling protein),1,-2.11,39.9,-1.37,64.1,inactive
MAVS (mitochondrial antiviral signaling protein),2,1.89,119,0.957,104,inactive
MAVS (mitochondrial antiviral signaling protein),3,-1.12,59.6,-0.948,85.5,inactive
ANKRD49 (ankyrin repeat domain 49),1,0.523,92.3,-0.274,111,inactive
ANKRD49 (ankyrin repeat domain 49),2,-0.406,73.8,-0.761,101,inactive
ANKRD49 (ankyrin repeat domain 49),3,-0.115,79.6,-0.837,111,inactive
SLC17A1,1,-0.926,63.5,-0.719,85.7,inactive
SLC17A1,2,-0.529,71.4,-1.36,114,inactive
SLC17A1,3,0.712,96.1,-0.4,119,inactive
LRRC17 (leucine rich repeat containing 17),1,1.08,103,1.22,83.8,inactive
LRRC17 (leucine rich repeat containing 17),2,-0.869,64.6,-0.402,80.3,inactive
LRRC17 (leucine rich repeat containing 17),3,0.488,91.6,1.55,68.1,inactive
